# Data as given in the supplement of paper PMC3334620.
# Whole data set: some 33,000 sequences, median “E-score (-0.5 to 0.5)” near -0.0034, cut for the highest 2% near 0.25. This is one part of the list.
# Molecular target: T1, Yap3 (UniProt P38749)
# T1 sequence: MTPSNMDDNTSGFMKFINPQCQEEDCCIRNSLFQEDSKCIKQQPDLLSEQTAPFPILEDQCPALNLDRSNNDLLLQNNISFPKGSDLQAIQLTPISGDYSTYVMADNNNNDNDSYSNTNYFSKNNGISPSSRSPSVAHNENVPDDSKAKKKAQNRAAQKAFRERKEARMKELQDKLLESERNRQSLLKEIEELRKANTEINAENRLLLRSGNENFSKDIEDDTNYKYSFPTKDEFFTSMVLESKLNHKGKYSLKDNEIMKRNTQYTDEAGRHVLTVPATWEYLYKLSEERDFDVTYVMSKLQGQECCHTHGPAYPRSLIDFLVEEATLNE
# Experiment: PBM E-score (8-mer binding enrichment) (E-score (-0.5 to 0.5)); higher = stronger / more preferred TF binding
# Details: protein concentration: 100 nM; construct: GST-full length
# Description: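 Universal 'all 10-mer' protein binding microarrays (Agilent AMADID 015681) probed with GST-tagged S. cerevisiae TFs (full-length or DBD) made by in vitro transcription/translation (PURExpress), about 100-200 nM. Bound TF was detected with fluorescent anti-GST. Each ungapped 8-mer (which stands for itself and its reverse complement) is scored by the PBM enrichment score (E-score), a modified Wilcoxon-Mann-Whitney statistic from -0.5 to +0.5, computed with the Universal PBM Analysis Suite. Scale: above 0.35 generally sequence-specific binding.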
row,Sequence,PBM E-score
1,CAGCTGAC,-0.0663
2,CACACTCG,0.165
3,ACGGCAGT,-0.171
4,AAGCCTCG,-0.0424
5,GATCAGAC,-0.0877
6,ATTATTGC,0.228
7,CCGCCCGC,-0.162
8,CCTTGTAA,0.175
9,ACACTAAT,0.111
10,CGGCTGTC,-0.119
11,CCCCTGTA,-0.119
12,CAATCAAA,0.0584
13,AACAATCC,0.219
14,AGACTCTA,-0.078
15,CCCGGCTC,-0.389
16,CCTTCGAA,-0.0177
17,CGAGCGTC,-0.152
18,TAGATTAA,0.218
19,GGAAACAA,0.0492
20,ACGAATAC,0.192
21,AGTTGTGA,0.108
22,AATACGGC,0.0962
23,ACACCATG,-0.00611
24,CCAAACAA,0.11
25,AGAGGGAG,-0.102

row,Sequence,PBM E-score
1,AAAATCTT,-0.021
2,GCTCACTA,-0.0567
3,AATTACCT,0.0569
4,GGGCATTA,-0.117
5,CTTAGCTC,-0.115
6,CCTTCCAC,-0.0948
7,ACAGTGAG,0.0532
8,ACCGGCAC,-0.149
9,CTTAGACC,-0.0224
10,GGCCGTTA,0.00631
11,GGGGGGCA,-0.365
12,GTCGTTTA,-0.0446
13,AGATGATG,0.0822
14,ACCCCAGT,-0.023
15,CAGGAAGG,-0.253
16,CTTCCATA,-0.165
17,CAGGTAGA,0.00328
18,TCGGTAGA,0.115
19,CAGTCTAA,0.146
20,TGACCCCA,-0.14
21,ACGGGCTG,-0.17
22,AGTTAACG,0.126
23,GGCTAGCC,-0.413
24,TAAGCGTA,-0.0249
25,CGCGGTTC,0.126

row,Sequence,PBM E-score
1,AGGAGGCG,-0.107
2,GAGGCACA,-0.0567
3,GACGAACC,-0.115
4,ATGGTAGC,-0.0694
5,CCTCTTCC,-0.137
6,ACTTGTAC,-0.0218
7,AAGGTACC,0.00876
8,GTTACAAA,0.225
9,CCAGCGCA,-0.109
10,AGGGGCTC,-0.256
11,GCCCAGTA,-0.168
12,TACCCTCA,-0.127
13,ATCGCAAG,0.0705
14,CAGGGGCG,-0.0868
15,CGCTTATC,0.0171
16,ACAACCTC,-0.0214
17,ACCCGTAG,-0.319
18,TTCATGAA,0.123
19,GCGTGTGA,-0.0295
20,CTGTGTGA,0.102
21,CATTGCGG,-0.158
22,AACGACCT,-0.00487
23,CCAATTTA,0.258
24,AGAATGGA,0.0896
25,CTTCCCCA,-0.178

row,Sequence,PBM E-score
1,ATTGCCGA,-0.0174
2,CTATATAG,0.121
3,AGCCTGCA,-0.0221
4,CTAAAGTA,-0.0221
5,GGTGTACA,-0.0122
6,AACGCCTC,-0.387
7,CCAGTAAC,0.0196
8,CTATGATA,0.0744
9,CAGCTCTA,-0.0405
10,GCCCCGAA,-0.0165
11,TACTGAGA,-0.0171
12,ACTTCTTA,0.0706
13,AAAAATCG,-0.0533
14,AAGCTCCT,-0.259
15,AAACGGGA,0.12
16,AAGTTCCG,0.0723
17,GTGCAGGA,-0.0718
18,GGAGTAAC,-0.103
19,AGCGATCA,0.0611
20,CGCTACCG,0.0191
21,AGCATAGC,-0.0672
22,GGTCTCTA,-0.0325
23,CAGCGCGA,-0.0276
24,CATGGGGG,-0.265
25,TGCCGGCA,0.0991

row,Sequence,PBM E-score
1,AAAGCAGG,-0.00967
2,GGTTGGTA,0.183
3,GCATCCCA,-0.186
4,AGAGGTTA,0.0984
5,AGGCTATC,-0.203
6,AATTCGAT,0.171
7,GTACTCAA,0.0782
8,ACGTGGGA,-0.127
9,TGCCGAAA,-0.0682
10,CCGCTATA,0.0048
11,AATAGGAA,0.206
12,AATCACCG,0.11
13,AATTGGAA,0.133
14,CGGTGCGA,-0.0589
15,ATTGGAGA,0.125
16,CGATGCCC,-0.204
17,ACAACTCA,0.0676
18,CCAGACGG,-0.389
19,CAGTGTGC,-0.109
20,ATAAGATA,0.23
21,AACTCGAT,0.0914
22,CTCATTGA,-0.164
23,AAGACCAC,-0.28
24,AGGATGGC,-0.125
25,ACACTCCG,-0.109

row,Sequence,PBM E-score
1,CAGAGTGA,-0.0361
2,CGCTGGCC,-0.331
3,CCAGAGAG,-0.212
4,GTAGCCAA,0.0503
5,AAACCGTT,0.0314
6,GTAGGCGA,-0.0752
7,AGTATAAG,0.193
8,CGACAGTC,-0.259
9,CGAGAGTA,0.0233
10,AGCAGCTG,-0.0113
11,TAGGTACA,-0.0609
12,CAACATCA,0.21
13,CCTGCGGA,-0.0449
14,CCACGATC,0.0612
15,GTCTTTGA,-0.19
16,AGCAGACG,-0.0831
17,ACGTTTAT,0.204
18,CGCTGCCA,-0.154
19,CATGCATC,0.102
20,ACCAAAAT,0.0693
21,CGATAACG,0.0879
22,AGGCCAGC,-0.275
23,GATAACGC,0.167
24,CAGATACA,0.141
25,ACCCCCCC,-0.457

row,Sequence,PBM E-score
1,ACCCCGGC,-0.283
2,CTCAAGTA,-0.0341
3,AGTTGCGC,-0.0199
4,ATAGACAA,0.129
5,ATGGATAG,0.0546
6,GAATACGA,0.17
7,TCACATGA,-0.111
8,GGGGACAA,-0.0721
9,CACGAGTA,0.0471
10,AACTACTG,-0.00432
11,CCCCTGCC,-0.2
12,AACAGGGT,-0.11
13,GGATTGAA,0.14
14,ATTCGAGC,-0.0756
15,GTATGAAA,0.29
16,TATAGACA,0.0844
17,AGGCGTTC,-0.291
18,GATGAGGA,-0.00505
19,AAGTTAGT,0.164
20,GGGGGGGA,-0.404
21,AAGTAACG,0.0352
22,ACAGGGTA,0.0598

# Rewritten as tab-separated lines: part of the list above.
row	Sequence	PBM E-score
11	GCCCAGTA	-0.168
12	TACCCTCA	-0.127
13	ATCGCAAG	0.0705
14	CAGGGGCG	-0.0868
15	CGCTTATC	0.0171
16	ACAACCTC	-0.0214
17	ACCCGTAG	-0.319
18	TTCATGAA	0.123
19	GCGTGTGA	-0.0295
20	CTGTGTGA	0.102
21	CATTGCGG	-0.158
22	AACGACCT	-0.00487
23	CCAATTTA	0.258
24	AGAATGGA	0.0896
25	CTTCCCCA	-0.178
1	ATTGCCGA	-0.0174
2	CTATATAG	0.121
3	AGCCTGCA	-0.0221
4	CTAAAGTA	-0.0221
5	GGTGTACA	-0.0122
6	AACGCCTC	-0.387
7	CCAGTAAC	0.0196
8	CTATGATA	0.0744
9	CAGCTCTA	-0.0405
10	GCCCCGAA	-0.0165
11	TACTGAGA	-0.0171
12	ACTTCTTA	0.0706
13	AAAAATCG	-0.0533
14	AAGCTCCT	-0.259
15	AAACGGGA	0.12
16	AAGTTCCG	0.0723
17	GTGCAGGA	-0.0718
18	GGAGTAAC	-0.103
19	AGCGATCA	0.0611
20	CGCTACCG	0.0191
21	AGCATAGC	-0.0672
22	GGTCTCTA	-0.0325
23	CAGCGCGA	-0.0276
24	CATGGGGG	-0.265
25	TGCCGGCA	0.0991
1	AAAGCAGG	-0.00967
2	GGTTGGTA	0.183
3	GCATCCCA	-0.186
